PubChem BioAssay AID1053208, Peter MacCallum Cancer Centre | 2014
Shown is one part, drawn at random, of about 17,000 deposited reagents. Over the whole deposit, 788 (4.7%) got an active call. 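Calls rest on z-score classes alone; an extra cut-off of viability at most 70% of control was not applied to them.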 Reagents against one gene are numbered here. Not all columns of the deposit are shown.

Purpose: 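Synthetic lethal interactions between gene loss and doxorubicin in osteosarcoma cells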 (primary screen)
System: mouse osteosarcoma cells, early-passage culture from an engineered mouse model of fibroblastic bone tumour
Reagents: siRNA pool against mouse genes, 40 nM
Duration: about 120 h (48 h before drug, then 72 h with drug)
Challenge: doxorubicin 100 nM for 72 h, roughly 30-40% inhibitory dose
Measured: 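Luminescent ATP signal taken as viability with or without 100 nM doxorubicin for 72 h; mean of two wells set against non-targeting siRNA and turned into robust z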
Direction: viability z-score with doxorubicin: higher = more viable cells under doxorubicin; viability z-score without drug: higher = more viable cells with knock-down alone; z-score of drug to no-drug ratio: higher = less drug sensitisation by knock-down
Call rule: 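Called active if knock-down leaves viability unchanged without drug (z within -2 to 2) but lowers it with doxorubicin (z at or under -2)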

target gene	pool no.	combined z-score class	viability z-score with doxorubicin	viability z-score without drug	z-score of drug to no-drug ratio	outcome
Zdhhc4 (GeneID 72881)	1	no change with or without drug	-1.35	-0.51	-1.01	inactive
Or7g31 (GeneID 258516)	1	no change with or without drug	-0.34	-0.17	-0.11	inactive
Rab17 (GeneID 19329)	1	no change with or without drug	-0.22	-0.17	0	inactive
Ubr7 (GeneID 66622)	1	no change with or without drug	-1.8	0.34	-2.02	inactive
Cyp2c55 (GeneID 72082)	1	no change with or without drug	1.46	-0.17	1.8	inactive
B230219D22Rik (GeneID 78521)	1	no change with or without drug	0.9	0.51	0.67	inactive
Dpy19l3 (GeneID 233115)	1	no change with or without drug	-0.67	0.17	-0.67	inactive
Lrrtm2 (GeneID 107065)	1	no change with or without drug	0.22	-0.34	0.56	inactive
Cdk2 (GeneID 12566)	1	no change with or without drug	0	-0.84	0.67	inactive
Plek (GeneID 56193)	1	no change with or without drug	0.22	-1.52	1.57	inactive
Pcsk6 (GeneID 18553)	1	no change with or without drug	-0.11	-1.52	1.12	inactive
Atp23 (GeneID 68876)	1	no change with or without drug	-0.45	-0.17	-0.22	inactive
Il17rd (GeneID 171463)	1	no change with or without drug	0	0.17	0	inactive
Il17rd (GeneID 171463)	2	no change with or without drug	0.34	0.34	0.22	inactive
Ern2 (GeneID 26918)	1	no change with or without drug	0.9	1.18	0.22	inactive
Cyria (GeneID 76820)	1	no change with or without drug	-0.22	0.67	-0.56	inactive
Hadhb (GeneID 231086)	1	no change with or without drug	0	-1.85	1.57	inactive
Spata1 (GeneID 70951)	1	no change with or without drug	1.12	0.51	0.9	inactive
Sostdc1 (GeneID 66042)	1	no change with or without drug	0	-0.51	0.45	inactive
Rad51d (GeneID 19364)	1	no change with or without drug	0.22	-1.18	1.24	inactive
